Assay [1] deals with T1, VDAC1-mCitrine (FLIM-FRET) (Arabidopsis thaliana) (UniProt Q9SRH5).
T1 sequence: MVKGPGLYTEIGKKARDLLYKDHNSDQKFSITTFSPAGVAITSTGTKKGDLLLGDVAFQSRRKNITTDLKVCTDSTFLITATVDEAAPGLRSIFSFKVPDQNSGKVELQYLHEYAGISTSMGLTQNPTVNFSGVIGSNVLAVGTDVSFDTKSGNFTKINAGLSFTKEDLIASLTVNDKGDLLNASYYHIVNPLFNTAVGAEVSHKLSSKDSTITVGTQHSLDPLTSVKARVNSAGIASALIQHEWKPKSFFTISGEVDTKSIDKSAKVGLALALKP
Briefly: FRET or BRET; FLIM-FRET; mCitrine donor and mCherry acceptor fusions constitutively expressed in plant cell culture; enolase-mCitrine with free mCherry as negative control. In general terms: In BRET a luciferase serves as donor, and the signal depends on an acceptor being close.

The target of assay [2] is T2, VDAC3-mCitrine (FLIM-FRET) (Arabidopsis thaliana) (UniProt Q9SMX3).
T2 sequence: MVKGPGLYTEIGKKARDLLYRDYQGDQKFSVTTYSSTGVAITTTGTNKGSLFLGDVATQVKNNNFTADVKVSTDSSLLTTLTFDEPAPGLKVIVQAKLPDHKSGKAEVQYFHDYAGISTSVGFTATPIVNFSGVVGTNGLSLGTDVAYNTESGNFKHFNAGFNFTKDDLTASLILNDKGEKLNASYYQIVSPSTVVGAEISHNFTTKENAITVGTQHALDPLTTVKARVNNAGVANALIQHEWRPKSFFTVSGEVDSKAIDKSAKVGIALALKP
Described as above.

Assay [3] has as its target T3, VDAC1-NE (BiFC) (Arabidopsis thaliana) (UniProt Q9SRH5).
T3 sequence: T1 sequence
Briefly: split reporter; BiFC with split-mCitrine (NE, CE); transient expression in Arabidopsis mesophyll protoplasts and agroinfiltrated Arabidopsis leaves; confocal microscopy.

Assay [4] deals with T4, VDAC3-NE (BiFC) (Arabidopsis thaliana) (UniProt Q9SMX3).
T4 sequence: T2 sequence
The description is as above.

Results are given in words; binding and its absence hold for the method and conditions named. Binding seen in cells or lysates may run through a third protein. A result given as binding can be weak or reduced; the word gives no strength.

For “PYK4 fluorescent fusion (FLIM-FRET) (Arabidopsis thaliana) (enzyme)”, the binding result in assay [1] and in assay [2] was “binds” in each case.
Turning to “PYK4-CE (BiFC) (Arabidopsis thaliana) (enzyme)”, the binding result in assay [3] and in assay [4] was “binds” throughout.

(Values after publication PMC7481185.)
